# Reference: the supplement of paper PMC12819154, “High-throughput peptide-centric local stability assay extends protein–ligand identification to membrane proteins, tissues and bacteria” (Nature Structural & Molecular Biology, 2025)
# Amino acid sequences for entries named in this document (tags omitted). A change or cut given only in a name is not applied to a line headed by its entry.
# UniProt Q9CZE3: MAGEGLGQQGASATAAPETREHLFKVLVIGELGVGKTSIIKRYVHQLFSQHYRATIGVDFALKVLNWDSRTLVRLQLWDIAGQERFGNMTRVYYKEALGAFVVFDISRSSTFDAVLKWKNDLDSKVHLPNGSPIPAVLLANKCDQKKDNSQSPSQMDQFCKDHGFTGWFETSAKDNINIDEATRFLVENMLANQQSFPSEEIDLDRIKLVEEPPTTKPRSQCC
# UniProt Q9D0J8: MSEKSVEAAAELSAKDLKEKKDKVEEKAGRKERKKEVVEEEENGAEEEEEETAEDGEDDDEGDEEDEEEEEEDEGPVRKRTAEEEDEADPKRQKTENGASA
# UniProt Q9D0L1: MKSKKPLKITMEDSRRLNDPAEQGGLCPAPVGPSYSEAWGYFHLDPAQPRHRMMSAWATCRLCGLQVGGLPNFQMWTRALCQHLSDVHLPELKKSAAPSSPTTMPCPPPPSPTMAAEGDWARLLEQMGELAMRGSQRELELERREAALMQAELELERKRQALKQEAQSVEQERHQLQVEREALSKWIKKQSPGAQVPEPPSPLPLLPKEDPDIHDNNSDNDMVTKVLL
# UniProt Q9CWG8: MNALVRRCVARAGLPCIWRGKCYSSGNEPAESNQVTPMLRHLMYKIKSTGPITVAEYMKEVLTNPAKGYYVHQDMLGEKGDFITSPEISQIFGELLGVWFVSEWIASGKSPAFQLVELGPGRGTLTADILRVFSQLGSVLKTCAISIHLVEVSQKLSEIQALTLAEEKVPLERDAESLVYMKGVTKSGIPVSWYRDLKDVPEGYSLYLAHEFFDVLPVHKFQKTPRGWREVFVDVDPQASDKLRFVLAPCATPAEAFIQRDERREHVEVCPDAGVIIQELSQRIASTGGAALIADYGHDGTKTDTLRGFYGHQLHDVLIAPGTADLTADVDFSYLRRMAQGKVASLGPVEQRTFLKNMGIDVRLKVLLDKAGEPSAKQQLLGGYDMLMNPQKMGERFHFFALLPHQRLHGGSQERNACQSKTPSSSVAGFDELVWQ
# UniProt Q9CUX1: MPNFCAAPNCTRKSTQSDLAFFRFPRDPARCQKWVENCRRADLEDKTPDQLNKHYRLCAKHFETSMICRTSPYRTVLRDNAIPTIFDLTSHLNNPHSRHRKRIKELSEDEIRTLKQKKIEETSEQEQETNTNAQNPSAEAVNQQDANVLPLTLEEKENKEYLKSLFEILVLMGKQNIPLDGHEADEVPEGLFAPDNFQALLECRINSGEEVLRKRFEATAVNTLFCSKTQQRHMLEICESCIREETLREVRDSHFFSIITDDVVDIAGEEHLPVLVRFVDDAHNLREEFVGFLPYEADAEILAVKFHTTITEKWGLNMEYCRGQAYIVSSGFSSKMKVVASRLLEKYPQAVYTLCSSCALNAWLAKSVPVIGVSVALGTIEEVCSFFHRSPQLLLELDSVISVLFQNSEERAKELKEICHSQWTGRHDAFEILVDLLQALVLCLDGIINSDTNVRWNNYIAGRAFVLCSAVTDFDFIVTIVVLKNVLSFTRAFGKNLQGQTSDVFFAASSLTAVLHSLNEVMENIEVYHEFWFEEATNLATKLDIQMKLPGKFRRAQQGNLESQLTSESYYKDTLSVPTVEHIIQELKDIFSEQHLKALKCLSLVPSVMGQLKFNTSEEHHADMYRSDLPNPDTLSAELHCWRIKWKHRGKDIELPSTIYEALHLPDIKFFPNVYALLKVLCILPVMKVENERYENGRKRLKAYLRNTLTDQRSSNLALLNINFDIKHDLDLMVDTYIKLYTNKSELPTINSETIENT
# UniProt Q9D0I4: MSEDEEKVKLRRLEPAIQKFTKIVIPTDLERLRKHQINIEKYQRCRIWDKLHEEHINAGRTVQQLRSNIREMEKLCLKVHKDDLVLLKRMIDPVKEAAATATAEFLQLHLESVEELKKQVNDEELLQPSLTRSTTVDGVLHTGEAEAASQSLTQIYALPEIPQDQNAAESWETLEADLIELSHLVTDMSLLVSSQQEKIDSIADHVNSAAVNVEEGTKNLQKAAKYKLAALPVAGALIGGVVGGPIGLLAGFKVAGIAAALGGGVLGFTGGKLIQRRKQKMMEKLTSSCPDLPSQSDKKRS
# UniProt Q9CWX2: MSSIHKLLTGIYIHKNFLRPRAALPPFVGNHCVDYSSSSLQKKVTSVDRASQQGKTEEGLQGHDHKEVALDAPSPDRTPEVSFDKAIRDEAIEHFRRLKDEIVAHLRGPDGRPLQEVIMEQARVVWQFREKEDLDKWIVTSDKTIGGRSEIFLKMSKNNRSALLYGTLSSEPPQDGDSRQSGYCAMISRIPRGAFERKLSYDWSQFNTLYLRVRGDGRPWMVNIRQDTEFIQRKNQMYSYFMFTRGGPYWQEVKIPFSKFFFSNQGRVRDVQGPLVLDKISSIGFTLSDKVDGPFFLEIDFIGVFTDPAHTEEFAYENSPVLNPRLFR
# UniProt Q9CZK6: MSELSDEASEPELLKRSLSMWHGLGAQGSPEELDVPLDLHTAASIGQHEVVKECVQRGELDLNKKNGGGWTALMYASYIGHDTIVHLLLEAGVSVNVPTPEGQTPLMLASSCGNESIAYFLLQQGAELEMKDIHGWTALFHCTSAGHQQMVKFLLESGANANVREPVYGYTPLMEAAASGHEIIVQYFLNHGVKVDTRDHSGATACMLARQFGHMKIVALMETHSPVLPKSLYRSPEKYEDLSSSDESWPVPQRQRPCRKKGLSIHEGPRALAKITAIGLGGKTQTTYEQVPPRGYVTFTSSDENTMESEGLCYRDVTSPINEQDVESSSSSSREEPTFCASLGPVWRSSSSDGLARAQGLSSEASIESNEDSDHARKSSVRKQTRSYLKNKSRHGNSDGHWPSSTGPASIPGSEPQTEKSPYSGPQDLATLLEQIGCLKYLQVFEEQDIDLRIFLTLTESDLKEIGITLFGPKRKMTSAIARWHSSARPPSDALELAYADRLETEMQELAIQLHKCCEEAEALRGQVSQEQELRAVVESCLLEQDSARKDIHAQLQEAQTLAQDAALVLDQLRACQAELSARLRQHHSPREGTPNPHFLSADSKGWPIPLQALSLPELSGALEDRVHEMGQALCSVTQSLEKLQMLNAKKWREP
# UniProt Q9CWS4, whole entry: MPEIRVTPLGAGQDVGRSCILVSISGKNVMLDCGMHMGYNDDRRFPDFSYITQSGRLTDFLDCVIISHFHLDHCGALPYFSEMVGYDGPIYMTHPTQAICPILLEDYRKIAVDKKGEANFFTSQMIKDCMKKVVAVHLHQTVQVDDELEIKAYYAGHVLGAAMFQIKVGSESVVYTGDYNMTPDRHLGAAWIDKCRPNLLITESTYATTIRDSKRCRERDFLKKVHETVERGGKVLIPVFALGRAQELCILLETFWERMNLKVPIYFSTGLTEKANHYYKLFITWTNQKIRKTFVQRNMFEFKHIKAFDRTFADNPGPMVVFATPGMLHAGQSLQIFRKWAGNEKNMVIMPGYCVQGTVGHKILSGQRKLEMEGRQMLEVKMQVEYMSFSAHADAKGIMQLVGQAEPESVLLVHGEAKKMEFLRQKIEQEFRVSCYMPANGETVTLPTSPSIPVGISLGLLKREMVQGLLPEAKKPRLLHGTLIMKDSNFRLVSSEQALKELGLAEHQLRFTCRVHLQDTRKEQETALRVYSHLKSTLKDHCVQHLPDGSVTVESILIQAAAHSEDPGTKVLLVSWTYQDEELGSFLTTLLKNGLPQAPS
# UniProt Q9CVI2: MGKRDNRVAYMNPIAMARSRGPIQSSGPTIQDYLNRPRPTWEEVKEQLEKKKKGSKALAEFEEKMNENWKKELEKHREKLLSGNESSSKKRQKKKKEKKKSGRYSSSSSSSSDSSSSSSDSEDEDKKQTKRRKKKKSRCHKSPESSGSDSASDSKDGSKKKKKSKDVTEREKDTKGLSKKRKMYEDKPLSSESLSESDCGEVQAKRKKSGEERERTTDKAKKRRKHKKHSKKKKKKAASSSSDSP
# UniProt Q9D074: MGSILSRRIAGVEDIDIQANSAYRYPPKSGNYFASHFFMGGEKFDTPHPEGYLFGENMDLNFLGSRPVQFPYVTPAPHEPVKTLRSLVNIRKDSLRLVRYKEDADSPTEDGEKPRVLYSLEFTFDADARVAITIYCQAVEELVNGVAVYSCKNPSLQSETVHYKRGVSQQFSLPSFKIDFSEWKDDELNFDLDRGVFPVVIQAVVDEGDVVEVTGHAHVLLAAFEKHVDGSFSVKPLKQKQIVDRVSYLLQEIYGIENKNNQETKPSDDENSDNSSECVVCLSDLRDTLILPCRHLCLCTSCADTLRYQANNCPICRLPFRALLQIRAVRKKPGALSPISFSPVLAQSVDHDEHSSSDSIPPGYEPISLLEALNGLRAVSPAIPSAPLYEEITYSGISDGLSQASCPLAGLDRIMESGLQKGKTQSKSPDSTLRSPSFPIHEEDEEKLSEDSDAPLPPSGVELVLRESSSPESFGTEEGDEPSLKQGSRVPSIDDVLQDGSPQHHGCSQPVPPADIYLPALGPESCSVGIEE
# The list shows a part of the results. Most entries show no effect beyond the scatter of the controls.
# Compound: CN[C@@H]1C[C@H]2O[C@@](C)([C@@H]1OC)n1c3ccccc3c3c4c(c5c6ccccc6n2c5c31)C(=O)NC4 [staurosporine]
# Experiment: log2 fold change of tryptic peptide abundance, ligand vs vehicle (limited proteolysis) (log2 ratio); higher = more trypsin-susceptible (destabilized)
# Conditions: ligand concentration: 20 uM; sample: mouse liver crude lysate; replicate design: treated separately
row,Target,log2 fold change
1,"UniProt Q9CZE3 (peptide sequence: RYVHQLFSQHYR, peptide start residue: 42)",0.557
2,"UniProt Q9D0J8 (peptide sequence: TAEEEDEADPKRQK, peptide start residue: 81)",-0.813
3,"UniProt Q9D0L1 (peptide sequence: QALKQEAQSVEQER, peptide start residue: 160)",-0.115
4,"UniProt Q9CWG8 (peptide sequence: STGPITVAEYMK, peptide start residue: 48)",0.249
5,"UniProt Q9CUX1 (peptide sequence: RADLEDKTPDQLNK, peptide start residue: 40)",0.468
6,"UniProt Q9D0I4 (peptide sequence: HQINIEK, peptide start residue: 35)",-0.291
7,"UniProt Q9CWX2 (peptide sequence: FFFSNQGR, peptide start residue: 260)",-0.304
8,"UniProt Q9CVB6 (peptide sequence: ELQAHGADELLKR, peptide start residue: 66)",-0.593
9,"UniProt Q9CZK6 (peptide sequence: GLSIHEGPR, peptide start residue: 262)",-0.313
10,"UniProt Q9CWS4 (peptide sequence: VHLQDTR, peptide start residue: 515)",-0.312
11,"UniProt Q9CVI2 (peptide sequence: LLSGNESSSK, peptide start residue: 80)",-0.297
12,"UniProt Q9D074 (peptide sequence: IMESGLQK, peptide start residue: 414)",-0.0891
